These are yes or no findings as the source states them, for the method shown. Some binding calls cover weakened binding; strength is not graded here.

Protein sequences, listed by entry. Tags and fused reporters are not part of them. Residues count along the entry.
UniProt P13501, residues 24-91: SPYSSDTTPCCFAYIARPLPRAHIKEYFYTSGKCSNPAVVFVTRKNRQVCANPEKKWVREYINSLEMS
UniProt P09382, residues 2-135: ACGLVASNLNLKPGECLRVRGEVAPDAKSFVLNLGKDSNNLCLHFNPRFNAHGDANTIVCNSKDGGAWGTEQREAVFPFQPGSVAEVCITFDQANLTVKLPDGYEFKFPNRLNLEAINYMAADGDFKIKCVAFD

The experiment deals with CCL5 (RANTES) (UniProt P13501). Kind of experiment: far-Western, overlay or dot blot; spot blot: 3 µg of each protein spotted on nitrocellulose, incubated 1 h with 1 µg/mL recombinant galectin-1 or galectin-9 in PBS/0.1% Tween, bound galectin detected with anti-galectin antibody; both purified.

galectin-1 (from UniProt P09382 2-135): the binding entry is reported as “binds”.

On to galectin-9 (from UniProt O00182 1-355), for which the binding result is “binds”.

Source of the values: publication PMC8688422.
